Results of single-concentration screens

Data taken from ChEMBL document CHEMBL3988442, “University of Dundee, Small-Polar-MMV Screening Library” (2021).

Each number is a percent effect as filed.
The controls that fix the scale are not given in the record; negative values are as filed.
This is an unselected part of the compounds tested.
Two or more numbers in one place are separate tests of the same structure; such repeats can differ widely.

A: 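Whole-cell growth test on Mycobacterium tuberculosis, read after 4 days in a medium based on cholesterol and the lipid DPPC; the read-out is not stated. Tested at 50 µM. Higher reads as more growth inhibition (inferred: compounds with an IC50 in retests scored well above the rest). Of about 69,000 compounds tested this way, about 370 (0.54%) reached 50% or more in at least one test.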
B: 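Phenotypic screen: M. tuberculosis growth, glucose 7H9 medium, 3 days; the read-out is not stated. Concentration: 50 µM. Direction is inferred from retests: higher values go with more growth inhibition. About 69,000 compounds were tested under these conditions; 1.1% (about 760) showed 50% or more at least once.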

Compound: CN1C(=O)CCCC12CCCN(Cc1cccs1)C2.O=C(O)C(F)(F)F (stereo not given)
A: -9.932
B: -4.367

Compound: O=C1CCCCCN1CCc1nc(-c2cccnn2)no1
A: -2.457
B: 9.223

Compound: Cc1nc(N2CCC3(CCCN(CCO)C3=O)C2)c2sccc2n1 (stereo not given)
A: 9.022
B: 7.541

Compound: COCCNC(=O)c1cc(-n2cccc2)ccc1Cl
A: -8.985
B: -13.93

Compound: O=C1CC(c2ccc(C(=O)O)cc2)c2ncn(-c3ccccc3F)c2N1 (stereo not given)
A: -9.883 & -16.08
B: -17.63

Compound: COCCN(Cc1ccccn1)C(=O)Nc1cccnc1-n1cccn1
A: -1.605
B: 8.194

Compound: Cc1ccc(N2CCc3ncc(CNc4ccccn4)n3CC2)nn1
A: 17.82
B: 16.75

Compound: CCn1ccnc1CNc1nccc(-c2cn(C)nc2C)n1
A: -0.1801
B: 12.69

Compound: CC[C@H](C)[C@H](NC(=O)Cn1ccc2ccc(F)cc21)C(=O)OC
A: -8.781
B: 13.3 & 22.37

Compound: Fc1ccccc1CN1CCCC2(CCN(c3ncccn3)C2)C1 (stereo not given)
A: 17.37 & 26.92
B: 38.41 & 40.6

Compound: COc1cccc(NC(=O)NCC(O)c2ccc(F)cc2F)c1 (stereo not given)
A: -28.69
B: -30.12

Compound: COCCN1CCN(C(C(=O)O)c2ccc(SC)cc2)CC1 (stereo not given)
A: -4.171
B: 11.14

Compound: Cc1noc2ncc(C(=O)N3CCCC3c3ccncc3)cc12 (stereo not given)
A: 3.805
B: 3.84

Compound: CCC1c2ccsc2CCN1C(=O)NCc1ccc(C)nc1 (stereo not given)
A: 7.179
B: 17.24

Compound: COCCC(=O)N1CC2(CCN(Cc3cccc(Cl)c3)CC2)C1.O=C(O)C(F)(F)F
A: -11.75
B: -12.28

Compound: CN1CCN(Cc2ccccc2CNC(=O)c2cc(Br)ccc2F)CC1
A: -18.51
B: 8.216 & -3.926

Compound: CC(C)COCC(NC(=O)c1cnccn1)c1ccco1 (stereo not given)
A: -21.28
B: 5.394

Compound: CCc1nc(-c2ccc(C(=O)N3CCC4(CC3)OCCO4)cc2)no1
A: -12.66
B: -9.483

Compound: CN1CCNC(Cc2ccc(-c3cccs3)cc2)C1=O (stereo not given)
A: 21.41
B: 16.99

Compound: O=C(NCc1cccs1)C1CNCC12CCOCC2.O=C(O)C(F)(F)F (stereo not given)
A: 7.735
B: -7.328 & -6.088

Compound: O=C(Nc1cnn(Cc2ccc(Cl)cc2)c1)N1CCCC1CO (stereo not given)
A: 9.262
B: 21.82

Compound: CCCn1nc(C)c(CNC(=O)c2snnc2C)c1C
A: 18.98
B: 25.61

Compound: Cc1cc(C)n(CC2CN(Cc3noc(C4CC4)n3)CCO2)n1 (stereo not given)
A: -20.86
B: -6.172

Compound: CN(C)C(=O)CN1CCC2(CC1)COC2
A: 19.36
B: 16.02

Compound: CCOc1ccc(C(=O)CCC(=O)N(C)Cc2nc(C)c[nH]2)cc1C
A: 10.44
B: 4.745

Compound: NC(=O)c1cc2c(nc1-c1ccc3c(c1)CCO3)CCC2
A: 14.52
B: -1.605 & 8.761

Compound: O=C(NCCNc1cnccn1)NCC1CCS(=O)(=O)C1 (stereo not given)
A: -5.213
B: -3.883 & 1.713

The last 3 entries again:

| Compound | A | B |
|---|---|---|
| `CCOc1ccc(C(=O)CCC(=O)N(C)Cc2nc(C)c[nH]2)cc1C` | 10.44 | 4.745 |
| `NC(=O)c1cc2c(nc1-c1ccc3c(c1)CCO3)CCC2` | 14.52 | -1.605 & 8.761 |
| `O=C(NCCNc1cnccn1)NCC1CCS(=O)(=O)C1` (stereo not given) | -5.213 | -3.883 & 1.713 |